Results from paper doi:10.1101/2025.06.10.657920.
No constants are given. Whether binding was seen depends on the method and setting. In cells and extracts the contact can be indirect. Some binding calls cover weakened binding; strength is not graded here.

Sequences of proteins named here, by UniProt entry; tags and fusion partners are left off.
UniProt P12004: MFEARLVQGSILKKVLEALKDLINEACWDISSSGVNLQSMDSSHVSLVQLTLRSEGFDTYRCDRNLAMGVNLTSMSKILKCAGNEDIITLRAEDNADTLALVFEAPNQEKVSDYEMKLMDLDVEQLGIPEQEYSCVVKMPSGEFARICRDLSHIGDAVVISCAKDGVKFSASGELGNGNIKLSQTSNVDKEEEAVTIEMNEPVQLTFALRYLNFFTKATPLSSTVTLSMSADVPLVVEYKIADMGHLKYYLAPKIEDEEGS
UniProt Q7Z2Z1: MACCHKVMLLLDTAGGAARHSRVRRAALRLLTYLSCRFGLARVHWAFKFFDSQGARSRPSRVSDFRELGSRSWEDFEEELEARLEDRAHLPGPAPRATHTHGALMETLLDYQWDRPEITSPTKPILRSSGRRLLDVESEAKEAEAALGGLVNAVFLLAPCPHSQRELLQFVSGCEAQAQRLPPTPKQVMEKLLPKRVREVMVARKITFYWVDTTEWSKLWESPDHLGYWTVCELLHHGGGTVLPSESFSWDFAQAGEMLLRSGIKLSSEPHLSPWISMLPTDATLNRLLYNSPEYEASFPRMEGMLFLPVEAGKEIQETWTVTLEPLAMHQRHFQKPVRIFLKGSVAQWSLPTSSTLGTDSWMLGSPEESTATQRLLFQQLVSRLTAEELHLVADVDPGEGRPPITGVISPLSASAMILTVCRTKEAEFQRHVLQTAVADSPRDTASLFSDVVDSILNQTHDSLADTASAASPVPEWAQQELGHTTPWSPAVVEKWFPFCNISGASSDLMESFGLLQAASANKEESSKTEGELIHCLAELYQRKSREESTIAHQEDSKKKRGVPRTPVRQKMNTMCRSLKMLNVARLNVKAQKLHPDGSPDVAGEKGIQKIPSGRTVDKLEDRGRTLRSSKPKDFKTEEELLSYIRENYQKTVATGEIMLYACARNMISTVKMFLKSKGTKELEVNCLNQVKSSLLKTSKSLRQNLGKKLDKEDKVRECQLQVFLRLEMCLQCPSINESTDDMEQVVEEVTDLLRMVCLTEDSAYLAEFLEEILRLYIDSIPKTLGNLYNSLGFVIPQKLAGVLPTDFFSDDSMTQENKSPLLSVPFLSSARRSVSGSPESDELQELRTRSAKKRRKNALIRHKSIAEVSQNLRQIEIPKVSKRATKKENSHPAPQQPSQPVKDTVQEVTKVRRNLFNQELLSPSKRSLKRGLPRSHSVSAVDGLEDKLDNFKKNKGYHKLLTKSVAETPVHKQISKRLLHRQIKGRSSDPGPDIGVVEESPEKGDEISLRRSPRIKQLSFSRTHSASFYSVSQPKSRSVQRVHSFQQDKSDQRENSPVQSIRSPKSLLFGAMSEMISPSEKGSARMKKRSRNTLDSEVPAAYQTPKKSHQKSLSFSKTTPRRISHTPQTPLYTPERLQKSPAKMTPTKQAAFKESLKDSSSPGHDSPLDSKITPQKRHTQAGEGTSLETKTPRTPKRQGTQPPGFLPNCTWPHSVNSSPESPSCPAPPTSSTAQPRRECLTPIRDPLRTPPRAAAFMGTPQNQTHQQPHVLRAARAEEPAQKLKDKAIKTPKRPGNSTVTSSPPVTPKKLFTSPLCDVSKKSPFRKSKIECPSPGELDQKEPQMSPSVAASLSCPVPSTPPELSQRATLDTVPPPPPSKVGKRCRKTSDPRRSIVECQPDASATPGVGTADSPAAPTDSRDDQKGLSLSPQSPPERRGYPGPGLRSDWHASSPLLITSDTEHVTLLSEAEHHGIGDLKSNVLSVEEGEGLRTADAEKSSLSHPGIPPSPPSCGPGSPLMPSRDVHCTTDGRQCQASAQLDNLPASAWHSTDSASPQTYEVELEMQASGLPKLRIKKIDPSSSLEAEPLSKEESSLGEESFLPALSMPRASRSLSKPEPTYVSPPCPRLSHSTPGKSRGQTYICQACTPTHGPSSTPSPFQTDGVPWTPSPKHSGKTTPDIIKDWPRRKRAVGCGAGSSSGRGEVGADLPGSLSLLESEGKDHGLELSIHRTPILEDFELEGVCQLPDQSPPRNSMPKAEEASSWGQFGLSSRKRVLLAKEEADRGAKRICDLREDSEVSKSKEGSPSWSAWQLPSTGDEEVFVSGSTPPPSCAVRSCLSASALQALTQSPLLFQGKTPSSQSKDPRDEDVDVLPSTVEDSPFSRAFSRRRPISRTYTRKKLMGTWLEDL

Target: PCNA (human (endogenous in HCT116)) (UniProt P12004)
Assay: proximity ligation; in situ in HCT116 TRESLIN-mClover cells, pre-permeabilised and fixed as for immunofluorescence; anti-GFP (1:500) plus anti-PCNA (1:500), NaveniFlex MR100 PLA kit; control with anti-GFP alone; cells untreated or treated with the neddylation inhibitor MLN4924 (NAEi)

TRESLIN-mClover (endogenously tagged TRESLIN) (from UniProt Q7Z2Z1 1-1910)
binding: binds
